This is an account of results in PMC8541381.

By UniProt entry, the sequences of proteins in these tests, tags left out. Where a name states a change or a piece, a line headed by the entry shows the natural chain unless it says otherwise.
UniProt Q4W3B4: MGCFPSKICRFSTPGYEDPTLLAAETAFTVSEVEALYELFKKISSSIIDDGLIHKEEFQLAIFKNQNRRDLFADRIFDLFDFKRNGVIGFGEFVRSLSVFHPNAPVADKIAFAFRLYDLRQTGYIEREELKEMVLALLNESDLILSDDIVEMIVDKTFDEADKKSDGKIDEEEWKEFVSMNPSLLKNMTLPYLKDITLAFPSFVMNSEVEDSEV
UniProt O81223: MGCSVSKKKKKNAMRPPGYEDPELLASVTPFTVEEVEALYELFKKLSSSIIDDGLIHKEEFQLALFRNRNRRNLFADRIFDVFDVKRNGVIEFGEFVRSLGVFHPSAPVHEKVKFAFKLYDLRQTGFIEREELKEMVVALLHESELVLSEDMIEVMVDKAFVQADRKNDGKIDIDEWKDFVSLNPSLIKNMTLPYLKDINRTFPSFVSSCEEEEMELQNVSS
UniProt Q4W3B3: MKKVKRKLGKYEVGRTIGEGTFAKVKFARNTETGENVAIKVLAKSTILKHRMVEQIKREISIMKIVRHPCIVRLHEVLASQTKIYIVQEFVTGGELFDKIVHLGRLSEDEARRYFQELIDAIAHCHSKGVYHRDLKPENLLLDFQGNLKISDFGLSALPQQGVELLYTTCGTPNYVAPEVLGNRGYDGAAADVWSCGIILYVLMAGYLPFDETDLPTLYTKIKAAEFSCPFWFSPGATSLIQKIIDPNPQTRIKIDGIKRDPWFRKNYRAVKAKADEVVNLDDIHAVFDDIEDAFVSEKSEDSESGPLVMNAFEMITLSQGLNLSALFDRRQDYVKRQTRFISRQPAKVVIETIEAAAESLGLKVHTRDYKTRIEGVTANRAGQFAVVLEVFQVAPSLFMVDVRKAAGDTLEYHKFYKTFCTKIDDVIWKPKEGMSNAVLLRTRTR

These are yes or no findings as the source states them, for the method shown. For some assays here: A result given as binding can be weak or reduced; the word gives no strength.

Test [1] concerns the target BD⋅SlCBL4 (Solanum lycopersicum (tomato)) (UniProt Q4W3B4). Nature of the test: two-hybrid; Gal4p-based system, BD (pGBT9.BS) and AD (pGAD.GH) plasmids in yeast Y190; growth on SC-HLW (HIS3) and β-galactosidase filter-lift assay (LacZ).
Test [2] has as its target AtCBL4 (pGBT⋅AtCBL4) (Arabidopsis) (UniProt O81223). Described as above.
Test [3] concerns the target GST-SlCIPK24 (Solanum lycopersicum (tomato)) (UniProt Q4W3B3). Nature of the test: pull-down; GST or GST-SlCIPK24 bait on glutathione-Sepharose 4B beads, SlCBL4:c-Myc prey, 4 °C, 1 h, 50 mM Tris-HCl pH 7.4, 100 mM NaCl, 0.05% Tween 20, 1 mM PMSF, with 2 mM EGTA (absence of calcium); immunoblot with anti-c-Myc; both purified.
For test [4] the target is unchanged. Nature of the test: pull-down; GST or GST-SlCIPK24 bait on glutathione-Sepharose 4B beads, SlCBL4:c-Myc prey, 4 °C, 1 h, 50 mM Tris-HCl pH 7.4, 100 mM NaCl, 0.05% Tween 20, 1 mM PMSF, with 1 mM CaCl2; immunoblot with anti-c-Myc; both purified. For orientation: Immunoblotting shows a protein as a band on a membrane.

As for AD⋅SlCIPK24 (from UniProt Q4W3B3), the binding entry in test [1] and in test [2] was “binds” in each case.

As for SlCBL4:c-Myc (from UniProt Q4W3B4), the binding result is given as “no binding (only in the absence of Ca2+ (2 mM EGTA))” in test [3] and “binds” in test [4].

B1: AtCIPK24 (pGAD⋅AtCIPK24) (protein, UniProt Q9LDI3 1-446)
chain: MTKKMRRVGKYEVGRTIGEGTFAKVKFARNTDTGDNVAIKIMAKSTILKNRMVDQIKREISIMKIVRHPNIVRLYEVLASPSKIYIVLEFVTGGELFDRIVHKGRLEESESRKYFQQLVDAVAHCHCKGVYHRDLKPENLLLDTNGNLKVSDFGLSALPQEGVELLRTTCGTPNYVAPEVLSGQGYDGSAADIWSCGVILFVILAGYLPFSETDLPGLYRKINAAEFSCPPWFSAEVKFLIHRILDPNPKTRIQIQGIKKDPWFRLNYVPIRAREEEEVNLDDIRAVFDGIEGSYVAENVERNDEGPLMMNAFEMITLSQGLNLSALFDRRQDFVKRQTRFVSRREPSEIIANIEAVANSMGFKSHTRNFKTRLEGLSSIKAGQLAVVIEIYEVAPSLFMVDVRKAAGETLEYHKFYKKLCSKLENIIWRATEGIPKSEILRTITF
Take B1: the binding entry in test [1] is reported as “binds”.
